# Among all 52,000 sequences or so, about 210 (0.4%) were called active.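 Rule for the calls: active = gene whose silencing raises cell survival under the drug, median off-target-corrected z-score across its silencing RNAs 2 or more; inactive = the rest.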 The list shows a part of the results.
# Assay: Resistance to Poly (ADP-Ribose) Polymerase inhibitor: Gene Identification via Genome-wide siRNA Screen
# Conditions: mouse BRCA2 R2336H ES cells, olaparib, CellTiter-Glo viability; hits give high values
# Method in brief: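 Mouse BRCA2 R2336H ES cells were reverse-transfected with siRNA (20 nM final), treated at 48 h with 500 nM olaparib, and read by CellTiter-Glo after 72 h. Scores: MAD-based z per siRNA, median per gene, seed off-target correction.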
row,Sequence,z-score
1,CGAAAAUAAUGGGUUCGGUTT against Tbx5,inactive: 1.64
2,CCAACCUGCUUGCCAAUUGTT against 5031414D18Rik,inactive: 1.82
3,GGGAAGCUGGGAAAAAAGATT against 2810453K03Rik,inactive: -0.402
4,GGUGUAAGUCGGUAUAUUUTT against 4921511I16Rik,inactive: -0.414
5,GGACUGGAAAAUAUCAAACTT against Spata5,inactive: 0.501
6,CGAUGGAGUCUGGUAUUCATT against Srpx,inactive: 1.76
7,GCCGUAUGAAUCCUACACATT against 2310075A12Rik,inactive: -0.654
8,GGAGCAGCGACUCAACUUUTT against Stub1,inactive: 0.162
9,GGUGAAAAAUGCAUUGAAGTT against Olfr1043,inactive: 1.08
10,GGACAACGGAUUUUAGGAGTT against E130309B19Rik,inactive: 0.426
11,GGCCAAGAGAAUCUAAAGATT against Strn4,inactive: 0.216
12,GCGGCAUGGUUAAGAAUUATT against Chst11,inactive: 0.212
13,CGGAUGAACAUUUACCAAGTT against 9330164H19Rik,inactive: -0.536
14,GGUAGCCAGAAAAAAAAAATT against Pkn3,inactive: 0.601
15,GGAACCAAAAGCCUGGCGATT against Pkd1l3,inactive: 0.0646
16,CGACCAGAGUGGAUACCUGTT against Ocm,inactive: 1.1
17,CCUCUUGUAUGUGUGGUUUTT against Cdc25b,inactive: -0.43
18,CGAGUGUUUGGACAACAAUTT against Ldlr,inactive: 1.58
19,GGAAUACCAAAGUAUGAAGTT against 4831426I19Rik,inactive: 1.59
20,GGAAGAAGAUUCCUUACAATT against 4933414G08,inactive: 0.786
21,UGCCGCUCGUGUUUCGGGATT against Hmx2,inactive: -1.14
22,GCCAUGAUUUUCAUGUACGTT against Olfr711,inactive: 0.236

# 2 entries picked at random from those above:
row,Sequence,z-score
16,CGACCAGAGUGGAUACCUGTT against Ocm,inactive: 1.1
21,UGCCGCUCGUGUUUCGGGATT against Hmx2,inactive: -1.14

# The results go on:

row,Sequence,z-score
1,GGACAUGGGCAAAAUGACCTT against Naga,inactive: 0.681
2,GGCCAUAUUAAGUAUGGAGTT against 3110048E14Rik,inactive: 0.378
3,GGUCGACAGAAAAAACAUUTT against 6430556C10Rik,inactive: 0.84
4,GGAGUGCAUGACUCAGCUUTT against Olfr926,inactive: -0.738
5,GCUUCCUACUCUCCAGUUUTT against 1110014F24Rik,inactive: 0.321
6,GCCUUACACUUUCCUACAATT against D630045E04Rik,inactive: 0.912
7,GCUCCUAUCUACAGCUCUUTT against Samd4,inactive: -2.08
8,CGGAUUAAACAUAGUAACUTT against 1700020H15,inactive: -0.288
9,GGACUCAAGAGUGAUUUCUTT against Ncoa5,inactive: -0.724
10,GCUUCAUCUAAAGGAUAAGTT against Rcn2,inactive: 1.1
11,GGAAACCUGAUACUAACAATT against Afmid,inactive: -1.13
12,GCUUUGAAAUCUGAAUCAGTT against Terf2,inactive: 1.12
13,CGGUCAAAUGUUGGAAGAUTT against Trappc3,inactive: 0.358
14,UGUCAGCGAGGAAUAACCCTT against Olfr503,inactive: 0.244
15,GUUUUUAGGUUGAGAAACUTT against V1rh13,inactive: -1.03
16,UUCUUGACAGCUGGAAGAGTT against Iigp5,inactive: 1.07
17,GGUCAUAGAGCUUUAGAUUTT against 4432416J03Rik,inactive: -0.252
18,GGUUUCUGAUUUCAUCAGUTT against D13Wsu14e,inactive: 0.0293
19,GCAGUCAUACAGAUUUUGGTT against Slc15a4,inactive: -0.732
20,GCCAAAGCCGAAUGAGAGGTT against Rtn2,inactive: -0.132
21,GGUGAUCAUUCUGGCAGCUTT against Olfr1215,inactive: 1.4
22,CCACGAGAAGUGGAUAUUATT against B130016O10Rik,inactive: -1.13

row,Sequence,z-score
1,GGAAUUGUCCCGGAAGAGGTT against Nipa,inactive: 1.07
2,GGAAGGAAAAGGAUAAAAGTT against Fbxo43,inactive: 0.608
3,CGGGUUCUACUAUCAUGCATT against Ltbp4,inactive: 0.425
4,GGCCUGAAAAGACUGAUAATT against V2r1b,inactive: 0.567
5,GGUACUCAUUUGUUACCAGTT against Gpr45,inactive: -1.53
6,GGAGAGUUCACACAGACUGTT against Whrn,inactive: -2.05
7,CGAAUGGCUGACCAUAAAATT against Sdro,inactive: 0.363
8,GGAAAUAUCUCUGGUAAUATT against Reln,inactive: -0.677
9,GGGAGAAGGUAAAAGAAAATT against 4931417A20,inactive: 0.821
10,GGUUCACCAUCAAGUCGGATT against Src,inactive: 1.93
11,GGAAAUGUCAUGCUUUCAGTT against V1rc5,inactive: 1.12
12,GGAUCAAAUGGAAUGUUCUTT against Ccl25,inactive: -1.41
13,GGAUGCUCAUGCUAAGCAGTT against Krt2-7,inactive: -1.05
14,GGGUUUUGAACACUACAUCTT against Leng5,inactive: -1.57
15,GAUCCACCCAUCCUACUGUTT against 3322402L07Rik,inactive: -0.605
16,GGACUACACAAUUUUCCCUTT against Proz,inactive: -0.0898
17,GGAACUAUCGGCUCUUUCUTT against Zdhhc1,inactive: -0.63
18,GGACACUUAGCAGCAAAGGTT against Lsm7,inactive: -1.42
19,CCUCAUAUGGAACCUGCAUTT against 8430429K09Rik,inactive: -0.96
20,GCUCUGAUGGUCUACUGCUTT against Rgs3,inactive: 0.0266
21,GGAUGUGCCAAGAUUUGCCTT against Fzd3,inactive: -0.83
22,ACUUCGUAAAAGAGCACAATT against LOC435366,inactive: 0.889

# From PubChem BioAssay AID1347423 (Functional Genomics Laboratory (NCATS/FGL), 2020)
